PubChem BioAssay AID2685 (National Center for Advancing Translational Sciences (NCATS), 2010)
The list shows a part of the results. Shown are side measurements of this screen, not its main read-out; they come without a call. Compounds called inactive in the main read-out are mostly missing here. The note in brackets gives the kind of curve behind each potency; many fits are weak.

Assay: qHTS Assay for Lipid Storage Modulators in Drosophila S3 Cells;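 for cell number change: cells counted by Cell Tracker Red CMTPX staining in the red channel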
Conditions: BODIPY lipid droplet fluorescence, 18-24 h; for cell number change: measured here: cell count max response, cells fed with added oleic acid
Procedure, shortened: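 Laser-scanning cytometry quantifies lipid droplet accumulation (500–530 nm total intensity; droplet/cell object ratio) in oleic acid-fed (400 uM added) Drosophila S3 cells treated with a concentration series. 20 uM Triacsin C defined 100% inhibition.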

[1] = measured here: cell number channel AC50, cells fed with added oleic acid
[2] = measured here: lipid fluorescence (Fed channel) AC50, cells fed with added oleic acid

## O=C(CCCCCn1c(=S)[nH]c2ccc(N3CCOCC3)cc2c1=O)NCc1ccccc1
  cell number change: 62.1%
[1]
  AC50: 29.1 µM [rising, single point]

## O=C(NCc1ccc(Cl)cc1)C1=Cc2cc(Cl)ccc2OC1
  cell number change: 71.2%
[1]
  AC50: 29.1 µM [rising, single point]
[2]
  AC50: 0.651 µM [falling, single point]

## CCN(CC)C(=O)C1c2ccccc2Oc2ccccc21
  cell number change: -24.7%

## CC(C)NC(=O)c1cccc(Br)c1
  cell number change: 23.5%

## CCSC1=C(C#N)C(c2ccc(F)cc2)CC(=O)N1 (stereo not drawn)
  cell number change: 7.6%
[2]
  AC50: 2.06 µM [falling, partial curve, poor fit]

## CCOC(=O)C1CCCCN1S(=O)(=O)c1ccc2c(c1)CC(C)N2C(=O)C1CCC1 (stereo not drawn)
  cell number change: 23.7%

## COc1ccc(OC)c(/C=C/C(=O)Nc2ccc(OC)nc2)c1
  cell number change: 56.2%
[1]
  AC50: 29.1 µM [rising, single point]
[2]
  AC50: 6.51 µM [rising, single point]

## CC1=[N+](C)N(c2ccccc2)C(=O)C1N=Cc1ccc(Cl)cc1 (stereo not drawn)
  cell number change: -41.5%
[1]
  AC50: 1.84 µM [falling, partial curve, poor fit]

## Cc1cccc(Cc2c(C)nc3c(C(=O)NCc4ccco4)cnn3c2C)c1
  cell number change: -11.1%
[2]
  AC50: 14.6 µM [falling, partial curve]

## Cc1ccc(NC(C)c2cc(Cl)ccc2O)cc1 (stereo not drawn)
[1]
  AC50: 5.8 µM [rising, single point]

## O=C1c2ccccc2C(=O)C12OC2c1cccc2ccccc12 (stereo not drawn)
  cell number change: -19.8%
[2]
  AC50: 29.1 µM [falling, single point]

## COc1cc(NS(=O)(=O)c2ccc(F)cc2)c(OC)cc1NC(=O)C1CC1
  cell number change: 6.42%
[2]
  AC50: 2.31 µM [rising, full curve]

## Cc1cc(C(=O)O)ccc1NCc1cccnc1
  cell number change: 1.93%
[2]
  AC50: 0.58 µM [rising, single point]

## COc1ccc(C(=O)NCCN2CCOCC2)cc1[N+](=O)[O-]
  cell number change: 47.3%
[1]
  AC50: 23.1 µM [rising, single point]
[2]
  AC50: 20.6 µM [rising, partial curve]

## CC(C)N(Cc1ccccc1)C(=O)COC(=O)c1ccc2ncsc2c1
  cell number change: -7.43%
[2]
  AC50: 20.6 µM [rising, single point]

## CCc1cc(C(=O)N(C)CC(=O)N(CC(C)C)c2c(N)n(CC(C)C)c(=O)[nH]c2=O)sc1C
  cell number change: -14.4%
[2]
  AC50: 6.51 µM [falling, single point]

## O=c1c2ccccc2nc(COc2ccccc2)n1/N=C/c1c[nH]c2ccccc12
  cell number change: -30.8%
[1]
  AC50: 11.6 µM [falling, partial curve, poor fit]
[2]
  AC50: 18.4 µM [falling, partial curve]

## CCC(C(=O)OCC(=O)Nc1ccc(C)c(S(=O)(=O)N2CCOCC2)c1)c1ccccc1 (stereo not drawn)
  cell number change: -33.6%
[1]
  AC50: 16.4 µM [falling, partial curve, poor fit]

## Cc1ccc(NC(=O)COC(=O)c2cccc3c2C(=O)c2ccccc2C3=O)c(C)c1
  cell number change: -10.7%

## CCCc1cc(NCCN(C)C)n2c(nc3ccccc32)c1C#N
  cell number change: 20.2%

## Cc1ccc(S(=O)(=O)N2CCN(Cc3cc(=O)n4ccccc4n3)CC2)cc1C
  cell number change: -8.04%

## CC(C)(C)NC(=O)NC(=O)CSc1nncs1
[1]
  AC50: 0.00517 µM [falling, full curve, poor fit]

## O=C(c1sccc1-c1ccccc1)N1CCN(S(=O)(=O)c2ccccc2F)CC1
  cell number change: 12.1%
[2]
  AC50: 7.31 µM [falling, partial curve]

## Cc1cc(Nc2ccc(O)cc2)n2c(nc3ccccc32)c1C#N
  cell number change: -43.8%
[1]
  AC50: 4.11 µM [falling, full curve]
[2]
  AC50: 5.8 µM [falling, partial curve]

## COc1ccc([C@H]2CC(=O)C=C(c3cc(OC)ccc3OC)C2)cc1
  cell number change: 9.27%
[1]
  AC50: 6.51 µM [falling, single point]

## O=C(Oc1ccc(Br)cc1C(=S)N1CCCC1)c1ccccc1F
  cell number change: -4.62%
[2]
  AC50: 18.4 µM [rising, single point]

## CCn1c(CCCCc2n[nH]c(=S)n2CC)n[nH]c1=S
  cell number change: 60.2%
[1]
  AC50: 11.6 µM [rising, partial curve]

## CC1CC(C)CN(c2nc3c(c(=O)n(C)c(=O)n3C)n2C)C1 (stereo not drawn)
  cell number change: -3.31%
[2]
  AC50: 0.651 µM [falling, single point]

## CCC(C)NCCOCCOc1ccc(C)cc1OC (stereo not drawn)
  cell number change: -31%
[1]
  AC50: 0.82 µM [falling, full curve, poor fit]

## O=C(CCCC1=NS(=O)(=O)c2ccccc2N1)N1CCN(c2ccc([N+](=O)[O-])cc2)CC1
  cell number change: 124%
[1]
  AC50: 20.6 µM [rising, partial curve]
[2]
  AC50: 25.9 µM [rising, single point]

## Cc1cc(NC(=O)CN2C(=O)NC(C)(c3ccc(Cl)cc3)C2=O)no1 (stereo not drawn)
  cell number change: -31%
[1]
  AC50: 29.1 µM [falling, single point]
[2]
  AC50: 16.4 µM [falling, partial curve, poor fit]

## COC(=O)[C@@]1(Cc2ccc(F)cc2)[C@H]2c3cc(C(=O)N(C)C)n(Cc4ccc(OC)c(OC)c4)c3C[C@H]2CN1C(=O)c1ccccc1
  cell number change: -54.1%
[1]
  AC50: 20.6 µM [falling, single point]
[2]
  AC50: 16.4 µM [falling, partial curve]

## Cc1cccc(OCCCC(=O)NC(C)c2ccccc2)c1 (stereo not drawn)
  cell number change: 86.4%
[1]
  AC50: 8.2 µM [rising, partial curve]
[2]
  AC50: 4.11 µM [rising, single point]

## COc1ccc(CNC(=O)C2CCN(C(=O)[C@@H](CC(C)C)NC(=O)OC(C)(C)C)CC2)cc1
  cell number change: -16.5%
[2]
  AC50: 23.1 µM [rising, partial curve]

## Cc1ccc(NC(=O)C2(NC(=O)c3ccccn3)CCCCC2)cc1Br
  cell number change: -47.4%
[1]
  AC50: 0.13 µM [falling, full curve, poor fit]

## CCN(CC)c1nc2ccccc2nc1C(C#N)C(=O)NCCCOC (stereo not drawn)
  cell number change: 18.3%
[2]
  AC50: 3.26 µM [rising, full curve]

## O=C1CC(NCc2ccc3c(c2)OCO3)C(=O)N1Cc1ccc2c(c1)OCO2 (stereo not drawn)
  cell number change: -14.9%
[2]
  AC50: 32.6 µM [rising, single point]

## Cc1nc2c(C(=O)NCc3ccco3)cnn2c(C)c1Cc1ccc(F)cc1Cl
  cell number change: 25%

## CCOC(=O)c1c(C)[nH]c(=S)c(C#N)c1-c1ccc(Cl)cc1
  cell number change: 19.5%
[2]
  AC50: 2.59 µM [rising, full curve]

## Cc1onc(-c2ccccc2Cl)c1C(=O)Nc1nc2ccc(S(C)(=O)=O)cc2s1
  cell number change: 7.61%
[2]
  AC50: 0.651 µM [rising, single point]

## COc1cc(C(=O)Sc2ccc(C)cc2)cc(OC)c1OC
  cell number change: 27.9%
[2]
  AC50: 14.6 µM [rising, partial curve]

## COc1cc(OC)c(S(=O)(=O)N2CCN(C(=O)c3ccco3)CC2)cc1NC(C)=O
  cell number change: -51.2%
[1]
  AC50: 10.3 µM [falling, partial curve, poor fit]

## CC(=O)c1ccc(N2CCN(C(=O)/C=C/c3ccc(S(=O)(=O)N4CCOCC4)cc3)CC2)cc1
  cell number change: -9.85%

## CC(C)(C)NC(=O)c1ccc(NC(=O)CSc2ccccc2)cc1
  cell number change: 33.8%
[1]
  AC50: 0.0184 µM [rising, full curve]
[2]
  AC50: 0.651 µM [rising, full curve, poor fit]

## Cc1nn(CCOc2ccccc2Cl)c(C)c1[N+](=O)[O-]
  cell number change: 22.1%

## CCC[N+](CC#Cc1ccccc1)(CCC)CC(=O)OCC
  cell number change: 78.7%
[1]
  AC50: 25.9 µM [rising, single point]
[2]
  AC50: 6.51 µM [rising, partial curve]

## CC1CCN(C(c2cc3cc4c(cc3[nH]c2=O)OCO4)c2nnnn2CC2CCCO2)CC1 (stereo not drawn)
  cell number change: -11.2%

## O=C(c1ccc(COc2ccccc2Br)o1)N1CCCCCC1
  cell number change: -2.73%

## C=CCN1C(=O)/C(=C2/Sc3ccc(OC)cc3N2CC)SC1=S
  cell number change: -15.7%
[2]
  AC50: 6.51 µM [falling, full curve, poor fit]

## COc1cccc(NC(=O)CSc2nc(C3CC3)nc3ccccc23)c1
  cell number change: 138%
[1]
  AC50: 16.4 µM [rising, single point]

## O=C(Nc1ccc2c(c1)nc1n2CCOC1)c1ccccc1
  cell number change: 9.42%
[2]
  AC50: 0.00461 µM [falling, full curve, poor fit]

## CCOC(=O)N1CCN(C(=O)Nc2ccc(NC(=O)N3CCN(C(=O)OCC)CC3)cc2)CC1
  cell number change: -9.77%
[2]
  AC50: 29.1 µM [falling, single point]

## CCc1cccc(C)c1NC(=O)CSc1nnc(Cc2csc(C)n2)o1
  cell number change: 144%
[1]
  AC50: 29.1 µM [rising, single point]

## CC(=O)c1cccc(NS(=O)(=O)c2c(C)n[nH]c2C)c1
[1]
  AC50: 0.013 µM [falling, full curve, poor fit]
[2]
  AC50: 0.231 µM [falling, partial curve, poor fit]

## CN1CCCC1=Nc1c2c(nc3ccccc13)N(C)CC2
  cell number change: -17.2%
[2]
  AC50: 0.731 µM [falling, full curve]

## COc1ccc(OC)c(-c2cc(C(=O)NCCCn3ccnc3)no2)c1
  cell number change: -0.1%
[1]
  AC50: 0.146 µM [rising, full curve, poor fit]
[2]
  AC50: 0.411 µM [rising, full curve]

## Cc1c(C)c2ccc(OCC(=O)NC(Cc3c[nH]c4ccc(O)cc34)C(=O)O)c(C)c2oc1=O (stereo not drawn)
  cell number change: 11.5%
[2]
  AC50: 6.51 µM [rising, single point]

## O=C(CSc1nc2ncccc2[nH]1)c1cccc([N+](=O)[O-])c1
  cell number change: -33.9%
[1]
  AC50: 20.6 µM [falling, partial curve, poor fit]
[2]
  AC50: 18.4 µM [falling, partial curve]

## CC(C)CNS(=O)(=O)c1ccc(OCC(=O)Nc2ccc(F)cc2F)cc1
  cell number change: 63.3%
[1]
  AC50: 14.6 µM [rising, partial curve]
